According to PubChem BioAssay AID2685 (National Center for Advancing Translational Sciences (NCATS), 2010):
The list shows a part of the results. Shown are side measurements of this screen, not its main read-out; they come without a call. Compounds called inactive in the main read-out are mostly missing here. Potencies come from curve fits of mixed quality, noted in brackets.

Test: qHTS Assay for Lipid Storage Modulators in Drosophila S3 Cells;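 on cell number change: cells counted by Cell Tracker Red CMTPX staining in the red channel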
Settings: BODIPY lipid droplet fluorescence, 18-24 h; for cell number change: measured here: cell count max response, cells fed with added oleic acid
Procedure, shortened: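 Drosophila S3 cells loaded with oleic acid (400 uM, as added) and compounds at several concentrations; lipid droplets imaged by 488-nm laser-scanning cytometry, 500–530 nm intensity and object ratio to cell channel. Percent activity normalized to 20 uM Triacsin C.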

[1] = measured here: cell number channel AC50, cells fed with added oleic acid
[2] = measured here: lipid fluorescence (Fed channel) AC50, cells fed with added oleic acid

Structure (SMILES)	cell number change [%]	AC50 [1]	AC50 [2]
COc1cc(-c2nnc3sc(-c4ccco4)nn23)cc(OC)c1OC	4.3		
CCOP(=O)(OCC)c1nc(-c2cccc3ccccc23)oc1NCc1ccccc1	28.5		
Cc1nc2ccc(S(=O)(=O)Nc3ccc(-c4nc5cccnc5s4)cc3)cc2s1	38.5	5.8 µM [rising, partial curve]	0.291 µM [rising, full curve, poor fit]
Cn1c(COc2ccc(Cl)cc2)nnc1SCC(=O)Nc1ccc2c(c1)CCC2	-50.1	29.1 µM [falling, single point]	25.9 µM [falling, partial curve]
Cc1ccc(C2CC(=O)NC(SCc3ccccc3)=C2C#N)o1 (stereo not given)	-0.141		6.51 µM [rising, full curve, poor fit]
Cc1cc(C)c(NC(=O)Cn2nnc(C(=O)Nc3ccc(F)cc3F)c2N)c(C)c1	5.07		0.517 µM [rising, partial curve, poor fit]
CCSc1oc(-c2ccco2)nc1S(=O)(=O)c1ccc(F)cc1		2.06 µM [rising, partial curve]	
O=C(COc1ccc(Cl)cc1)NCc1n[nH]c(=O)c2ccccc12	-6.48		14.6 µM [rising, partial curve]
OCCC1CN(Cc2cccc(O)c2)CCN1CCc1ccccc1 (stereo not given)	-6.45	4.61 µM [falling, single point]	
O=C(Nc1ccc2c(c1)OCO2)C(c1ccccc1)N1CCCCC1 (stereo not given)	30.3	0.00411 µM [rising, full curve, poor fit]	6.51 µM [rising, partial curve, poor fit]
CN(Cc1ccccc1)C(=O)CC(c1ccccc1)c1cc(Cl)ccc1O (stereo not given)	-19.7		0.411 µM [falling, full curve, poor fit]
Cc1ccc(C(=O)CN(CCC(=O)O)S(=O)(=O)c2ccc([N+](=O)[O-])cc2)cc1	12.7		29.1 µM [rising, single point]
O=C1C2CCc3ccccc3C2N1c1ccccc1 (stereo not given)	13.3	1.16 µM [falling, single point]	1.16 µM [falling, single point]
CC(=O)Nc1ccc(S(=O)(=O)Nc2cc(C)cn(Cc3ccc(C)cc3)c2=O)cc1	11.7		0.103 µM [falling, full curve, poor fit]
CCC1=Nc2cc(C(=O)NCCCOC(C)C)ccc2Sc2ccccc21			23.1 µM [rising, single point]
O=C(NNC(=O)c1ccc(SCC2CCCO2)c([N+](=O)[O-])c1)c1ccc(F)cc1 (stereo not given)	4.74		
Cc1cccc(N(C(=O)CCC(=O)Nc2cc(C)on2)C(C(=O)NC2CCCC2)c2cccnc2)c1 (stereo not given)	-37.2	20.6 µM [falling, single point]	
Cc1ccc(-c2noc(CCC(=O)N(C)c3ccccc3C)n2)cc1	43.7	0.92 µM [rising, partial curve, poor fit]	5.17 µM [rising, single point]
O=C(COC(=O)Cc1ccc(Br)cc1)NCC1CCCCC1	14.8	0.231 µM [falling, single point]	14.6 µM [rising, partial curve, poor fit]
Cc1ccc(CNC(=O)c2cnccn2)cc1			10.3 µM [rising, partial curve, poor fit]
Cc1cc(OCCOc2cccc3cccnc23)c(C)cc1Cl	-9.88		0.291 µM [rising, full curve, poor fit]

Structure (SMILES)	cell number change [%]	AC50 [1]	AC50 [2]
C=CCNC(=O)CSc1nnc(-c2ccccc2Cl)n1-c1c(C)n(C)n(-c2ccccc2)c1=O	15.3		0.731 µM [falling, full curve]
O=C(NCC(=O)N1CCN(S(=O)(=O)c2ccc3c(c2)OCCO3)CC1)c1ccccc1Cl	3.88		0.103 µM [rising, full curve, poor fit]
O=C(COC(=O)c1cnc(Cl)c(Cl)c1)NCc1ccco1	-55.9		
C[C@H](NC(=O)c1nc[nH]c1C(=O)NCC(=O)OCc1ccccc1)c1ccccc1	15		
CC(C)c1ccc(O)c(NC(=O)c2cccnc2)c1	2.52		
CC(=O)Nc1cccc(-c2cnc3ccccc3n2)c1	0.965		0.164 µM [rising, full curve, poor fit]
O=C(Nn1cnnc1)c1ccc(OC(F)(F)C(F)C(F)(F)F)cc1 (stereo not given)	17.2		29.1 µM [rising, single point]
CC(C)(C)OC(=O)NNC(=O)C12CC3CC(CC(C3)C1)C2	45		
CSc1nsc(SCC(=O)Nc2cccc(NC(C)=O)c2)n1	0.87		0.731 µM [rising, partial curve, poor fit]
C/C(=N\NC(=O)c1ccc(Cn2cc(Br)cn2)o1)c1cccc(NC(=O)C(C)(C)C)c1	37.5	10.3 µM [rising, partial curve]	9.2 µM [rising, partial curve]
NS(=O)(=O)c1ccc(NC(=S)NNC(=O)CCC(=O)Nc2ccccc2Cl)cc1	23.7		1.46 µM [rising, partial curve, poor fit]
Cc1ccc(C(=O)Nc2c(C)cc(C)c3cccnc23)cc1	-4.23		0.00461 µM [falling, full curve, poor fit]
C=CCn1c(SCC(=O)Nc2cccc3ccccc23)nc(O)c(CC)c1=O			16.4 µM [rising, partial curve]
O=C(Cc1c(F)cccc1Cl)Nc1ccc(S(=O)(=O)N2CCOCC2)cc1	2.85		
CC(NC(=O)c1ccc(Br)o1)C1CC2CCC1C2 (stereo not given)	-20.7		
CC(=O)Nc1ccc(C(=O)c2ccccc2)cc1	-8.68		6.51 µM [rising, single point]
CC(=O)NC1CCN(C(=O)N2CCCC2)CC1	11.6		
Cc1ccnc(SCC(=O)Nc2oc(-c3ccccc3)c(-c3ccccc3)c2C#N)n1		2.06 µM [rising, partial curve]	
CC(Sc1ncccn1)C(=O)Nc1ccc2c(c1)OCCO2 (stereo not given)	-10.4	0.184 µM [falling, partial curve]	
CN(C)C1=NCCN1CCc1ccc(F)cc1	-14.6		20.6 µM [rising, single point]
CC(C)COc1ccc(C(=O)OCCN2CCOCC2)c(O)c1	-27.6	3.26 µM [falling, full curve, poor fit]	29.1 µM [falling, single point]

Structure (SMILES)	cell number change [%]	AC50 [1]	AC50 [2]
COCC(C)n1c(C)cc(C(=O)COC(=O)c2oc3ccccc3c2C)c1C (stereo not given)	-21		29.1 µM [falling, single point]
COc1c(S(=O)(=O)N2CCN(C)CC2)ccc(Cl)c1Cl	16.9		
COc1ccc(CCNC(=O)c2oc3ccc(S(=O)(=O)N4CCOCC4)cc3c2C)cc1OC	-30		23.1 µM [falling, single point]
CCOc1cc(CNCc2ccccc2)ccc1OCC(=O)NC1CCCCC1	-8.67		
NC1=NC[C@H](CC2CCCCC2)N1CCc1cc(C(F)(F)F)cc(C(F)(F)F)c1	-73	29.1 µM [falling, single point]	29.1 µM [falling, single point]
CCOC(=O)/C(=C\c1ccc(Cl)cc1)c1nc2sc(C)c(C)c2c(=O)[nH]1	-10.5		20.6 µM [falling, single point]
COc1ccc2nc(NC(=O)CSc3nnnn3C3CCCCC3)sc2c1	57.2	20.6 µM [rising, partial curve, poor fit]	0.92 µM [rising, full curve]
CS(=O)(=O)c1ccccc1C(=O)Nc1ccc(-c2nc3ccccc3o2)cc1	-13.1		
O=C(NCc1cccc(Cl)c1)c1cccc(OC2CCN(C(=O)C3CC3)CC2)c1	-25.2		2.31 µM [falling, partial curve]
O=C(CNC(=O)c1ccc(Cl)cc1Cl)OCN1C(=O)c2ccccc2C1=O	5.49		6.51 µM [falling, single point]
COc1cccc(CNS(=O)(=O)c2ccc3c(c2)NC(=O)CS3)c1	-26.4		20.6 µM [falling, single point]
N#Cc1ccccc1Sc1ccccc1C(=O)OCC(=O)NC1CCCCC1	37.4	16.4 µM [rising, partial curve]	23.1 µM [falling, single point]
C=CCc1ccc(OCCCCOc2ccc(C(=O)O)cc2)c(OC)c1	-44.6	25.9 µM [falling, single point]	29.1 µM [falling, single point]
COc1ccc(CCN2C(=NC(=O)C(C)C)SC3CS(=O)(=O)CC32)cc1OC (stereo not given)	31.2		
Cc1ccccc1CN1[C@@H]2c3ccccc3C[C@@H]2OCCS1(=O)=O	16.5		
COc1ccc(C2C(C(=O)c3cccs3)=C(O)C(=O)N2c2cccc(C)n2)cc1 (stereo not given)	-57.4	8.2 µM [falling, partial curve]	
O=C(CNC(=O)c1ccc(Cl)cc1Cl)NCc1ccccn1	-17.2		
C[C@@]12CC(=O)NC1N(C(=O)c1ccccc1)C(c1ccccc1OC(=O)c1ccccc1)C2 (stereo not given in full)	14.8		29.1 µM [rising, single point]
O=S(=O)(c1ccc(NCCOCCO)nc1)N1CCCCC1	-32.3	18.4 µM [falling, single point]	20.6 µM [falling, single point]
CCOC(=O)N1CCN(c2cc(NCCO)c([N+](=O)[O-])c3nonc23)CC1	17.6		
